# Experimental data published in PubChem BioAssay AID758 (NMMLSC, 2007).
# Hit rate of the full screen: of about 190,000 compounds, about 110 (0.058%) were called active. The inconclusive results got no clear call from the source; some entries with a clear call stand among them for comparison.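 How the source made its calls: active means fluorescent GTP binding to Rab7 beads changed by at least 20 points from the 100% baseline, either direction, mostly lower; inconclusive means compound itself probably fluorescent, or too few beads counted; inactive means the rest.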
# System: Rab7 GTPase wild type (dog), Bodipy-FL-GTP binding
# Experiment: modulators of GTP binding to Rab7, primary screen, biochemical, wildtype, multiplex bead flow cytometry (AID 758);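 further: median green fluorescence of bound Bodipy-FL-GTP per Rab7 bead population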
# Conditions: GST-Rab7 beads, fluorescent GTP binding, at 10 µM, actives lie on both sides, untreated = 100%, excess cold GTP = 0%
row,SMILES,GTP binding activity (percent of control)
1,Brc1ccc(Nc2c3c(nc4ncnn24)CCC3)cc1,inconclusive: 95%
2,Cc1cccc(NC(=O)CC(C)(C)C)c1,inconclusive: 101%
3,COc1ccc(CN(C)C(=O)COC(=O)c2c(-c3ccccc3Cl)noc2C)cc1,inactive: 94%
4,C=CCN1C2CCCC1CC(NC(=S)Nc1ccc(Cl)cc1)C2 (configuration not stated),inactive: 104%
5,Cc1cc(NC(=O)CSc2nc3cc4c(cc3c(=O)n2CCc2ccccc2)OCO4)no1,inconclusive: 104%
6,CCCN1CCN(CCCNC(=O)C2CCCN(c3nc4ccc(OCC)cc4s3)C2)CC1 (configuration not stated),inconclusive: 101%
7,Cc1ccc(O)c(N=Cc2cc(Cc3ccccc3)cc([N+](=O)[O-])c2O)c1,active: 79%
8,Cc1onc(-c2c(F)cccc2Cl)c1C(=O)OCC(=O)NC1CC1,inactive: 98%
9,O=C1/C(=C/c2cccnc2)SC(=S)N1CC1CCCO1 (configuration not stated),inconclusive: 96%
10,CC(=O)Nc1ccc(NC2=C(Cl)C(=O)c3ccccc3C2=O)cc1,inconclusive: 92%
11,COc1cccc(/C=N/n2c(N)c(S(=O)(=O)c3cccs3)c3nc4ccccc4nc32)c1OC,inactive: 91%
12,CC(=O)Nc1ccc(Nc2nc(C)c([N+](=O)[O-])c(Nc3ccccc3)n2)cc1,inactive: 99%
13,COc1cc(C(=O)N(CCc2ccccc2)C2CC3CCC(C2)N3C)cc(OC)c1OC (configuration not stated),inconclusive: 102%
14,CCn1cnc2c1c(=O)n(CC(=O)Nc1cc(C)on1)c(=O)n2Cc1ccccc1,inconclusive: 105%
15,Cc1c(Cl)cccc1NC(=O)CC1SCCNC1=O (configuration not stated),inconclusive: 103%
16,COc1ccc(OC)c(-c2c3cc(O)c(=O)cc-3oc3cc(O)c(O)cc23)c1,inconclusive: 176%
17,CC(CCc1ccccc1)NC(=O)Cc1cccs1 (configuration not stated),inactive: 104%
18,Cc1cc(=O)oc2ccc(OCC(=O)N3CCC(C)CC3)cc12,inconclusive: 101%
19,Cc1ccc(C)c(Cn2c(C(C)O)nc3ccccc32)c1 (configuration not stated),inconclusive: 98%
20,CCc1ccc(NC(=O)CSc2nc3n[nH]c(C)c3c(=N)n2-c2cccc(OC)c2)cc1,inconclusive: 91%
21,COc1cc(/C=C/C(=O)OCC(=O)Nc2ccc(S(=O)(=O)N3CCCC3)cc2)ccc1O,inconclusive: 97%
22,CCOC(=O)C(/C=C(\C#N)C(=O)OCC)=C(/N)N1CCN(c2ccccc2)CC1,inconclusive: 95%
23,CCC(C)(C)NC(=O)CN(Cc1ccc2c(c1)OCO2)C(=O)CCC(=O)Nc1ccccn1,inconclusive: 94%

# 2 compounds drawn at random from those above:
row,SMILES,GTP binding activity (percent of control)
7,Cc1ccc(O)c(N=Cc2cc(Cc3ccccc3)cc([N+](=O)[O-])c2O)c1,active: 79%
18,Cc1cc(=O)oc2ccc(OCC(=O)N3CCC(C)CC3)cc12,inconclusive: 101%

# (continued)

row,SMILES,GTP binding activity (percent of control)
1,CCN(CC)CCN1C(=O)c2ccccc2NC1c1cc(OC)c(OC)c(OC)c1 (configuration not stated),inconclusive: 109%
2,Cc1ccsc1/C=C/c1ccc2cccc(O)c2n1,inactive: 105%
3,Cc1cc(C)n(CC(C)NCc2cn[nH]c2-c2ccc(C)c(C)c2)n1 (configuration not stated),inactive: 103%
4,Cc1cc(=O)[nH]c(N/N=C/c2c(C)nn(-c3ccccc3)c2C)n1,inconclusive: 94%
5,O=C(Nc1ccc(S(=O)(=O)N2CCCc3ccccc32)cc1)C1CCCO1 (configuration not stated),inactive: 103%
6,O=C(Nc1cccc2ncccc12)C(c1ccccc1)c1ccccc1,inactive: 97%
7,O=C(CSc1nnc(SCc2ccc(Cl)cc2)s1)c1ccc2c(c1)OCO2,inconclusive: 94%
8,COc1cc2ncnc(NCc3ccco3)c2cc1OC,inconclusive: 108%
9,Cc1ccccc1OCCn1cnc2cc([N+](=O)[O-])ccc2c1=O,inconclusive: 93%
10,NC(=O)NOCc1ncc(C(F)(F)F)cc1Cl,inactive: 105%
11,CCC(=O)Oc1ccc(C(=O)Nc2ccc([N+](=O)[O-])cc2)cc1,inactive: 100%
12,Cc1cc(C)n(C(=O)Cn2nc([N+](=O)[O-])cc2C)n1,inconclusive: 95%
13,COc1ccc2nc(NC(=O)C(NS(=O)(=O)c3cccc4nsnc34)C(C)C)sc2c1 (configuration not stated),inconclusive: 103%
14,COc1ccc(N(C(=O)c2cccc(OC)c2OC)C2C=CS(=O)(=O)C2)cc1 (configuration not stated),inconclusive: 102%
15,CC1=C(C(=O)OC(C)C)C(c2ccncc2)n2ncnc2N1 (configuration not stated),inconclusive: 94%
16,CC1(C)CC(=O)C2=C(C1)OC(N)=C(C#N)C21CCC2(CC1)OCCO2,inconclusive: 90%
17,NC(N)=N/N=C/c1ccc(Cl)c([N+](=O)[O-])c1,inactive: 103%
18,COCCn1c(NC(=S)NC(=O)C2CC2)cc(=O)[nH]c1=O,inconclusive: 89%
19,COc1ccc(-c2nnc3ccc(SCC(=O)Nc4cc(C)on4)nn23)cc1OC,inactive: 107%
20,CCCNC(=S)NC1CC2CCC(C1)N2Cc1ccccc1 (configuration not stated),inconclusive: 103%
21,COc1ccc(NC(=O)CC2S/C(=N\c3nccs3)N(C)C2=O)cc1 (configuration not stated),inactive: 100%
22,O=C1CC(c2ccccc2)CC(O)=C1C=Nc1ccccc1O (configuration not stated),inconclusive: 95%
23,O=C1C=C(NCCc2ccccc2)C2(CCCCC2)O1,inconclusive: 96%

row,SMILES,GTP binding activity (percent of control)
1,O=C(NCc1ccc(F)cc1)c1cccc(S(=O)(=O)N2CCCC2)c1,inconclusive: 105%
2,COc1ccc(-c2noc(CN3CCN(c4ccccc4F)CC3)n2)cc1OC,inconclusive: 91%
3,COCCOC(=O)C(C#N)c1nc2ccccc2nc1N1CCCC1 (configuration not stated),inactive: 98%
4,COc1ccc(NC(=O)Cn2c(=O)n(CC(=O)NCc3ccco3)c(=O)c3ccccc32)cc1,inconclusive: 103%
5,CCOc1ccccc1C1C(C#N)=C(N)Nc2onc(-c3ccccc3)c21 (configuration not stated),inconclusive: 103%
6,CCN(CC)CCNC(=O)CCCCn1c(=S)[nH]c2c([nH]c3ccc(OC)cc32)c1=O,inconclusive: 108%
7,COc1ccc(-c2csc(C3=C(O)CN(CCCN4CCCC4=O)C3=N)n2)cc1OC,inconclusive: 93%
8,Cc1ccc(Oc2c(F)c(F)nc(N3CCCC3)c2F)cc1,inconclusive: 91%
9,Cc1cc(NC(=O)C2CC(=O)N(c3ccccc3)C2)no1 (configuration not stated),inactive: 99%
10,CCCNC(=O)Cc1cc(=O)[nH]c(=O)[nH]1,inconclusive: 103%
11,Cc1ccc(-c2c(C(=O)O)c(C(=O)O)c3n2CCC3)cc1,inconclusive: 113%
12,CCCCOC(=O)c1ccc(NC(=S)NC(=O)c2c(Cl)cnn2C)cc1,inconclusive: 97%
13,COc1cc2c(C)nc3c(c(C)nn3-c3ccccc3)c2cc1OC,inactive: 95%
14,O=C1C2C3CCCC3=C3CCCC3C2C(=O)N1c1cccc(Cl)c1 (configuration not stated),inconclusive: 102%
15,CCN(C(=O)COc1ncnc2ccc(Br)cc12)C1CCS(=O)(=O)C1 (configuration not stated),inconclusive: 103%
16,CC(C)c1ccc(C(=O)NC2=NCCS2)cc1,inconclusive: 404%
17,CCN(CC)Cc1c(C(=O)OC(C)C)nnn1-c1nonc1N,inconclusive: 106%
18,O=C(Cn1ncc(Cl)c(Cl)c1=O)N1CCN(Cc2ccccc2)CC1,inconclusive: 92%
19,CC(=O)n1nc(-c2ccccc2)nc1NCc1ccc(N(C)C)cc1,inactive: 92%
20,COc1cc(/C=C/C(=O)O)cc(S(=O)(=O)NC2CC2)c1OC,inactive: 98%
21,CCOC(=O)C1=C(C)NC(SCC(=O)OC)=C(C#N)C1c1ccc(C(=O)OC)cc1 (configuration not stated),inconclusive: 88%
22,CC1=C(OC(=O)c2ccccc2)C(C)(C)C(c2ccccc2)OC1=O (configuration not stated),inconclusive: 96%
23,COc1ccccc1-c1c(C)[nH]n2c(=O)c(Cc3ccccc3)c(C)nc12,inactive: 94%

# Compounds from the list above that contain a halogen:
row,SMILES,GTP binding activity (percent of control)
1,Brc1ccc(Nc2c3c(nc4ncnn24)CCC3)cc1,inconclusive: 95%
3,COc1ccc(CN(C)C(=O)COC(=O)c2c(-c3ccccc3Cl)noc2C)cc1,inactive: 94%
4,C=CCN1C2CCCC1CC(NC(=S)Nc1ccc(Cl)cc1)C2 (configuration not stated),inactive: 104%
8,Cc1onc(-c2c(F)cccc2Cl)c1C(=O)OCC(=O)NC1CC1,inactive: 98%
10,CC(=O)Nc1ccc(NC2=C(Cl)C(=O)c3ccccc3C2=O)cc1,inconclusive: 92%
15,Cc1c(Cl)cccc1NC(=O)CC1SCCNC1=O (configuration not stated),inconclusive: 103%
7,O=C(CSc1nnc(SCc2ccc(Cl)cc2)s1)c1ccc2c(c1)OCO2,inconclusive: 94%
10,NC(=O)NOCc1ncc(C(F)(F)F)cc1Cl,inactive: 105%
17,NC(N)=N/N=C/c1ccc(Cl)c([N+](=O)[O-])c1,inactive: 103%
1,O=C(NCc1ccc(F)cc1)c1cccc(S(=O)(=O)N2CCCC2)c1,inconclusive: 105%
2,COc1ccc(-c2noc(CN3CCN(c4ccccc4F)CC3)n2)cc1OC,inconclusive: 91%
8,Cc1ccc(Oc2c(F)c(F)nc(N3CCCC3)c2F)cc1,inconclusive: 91%
12,CCCCOC(=O)c1ccc(NC(=S)NC(=O)c2c(Cl)cnn2C)cc1,inconclusive: 97%
14,O=C1C2C3CCCC3=C3CCCC3C2C(=O)N1c1cccc(Cl)c1 (configuration not stated),inconclusive: 102%
15,CCN(C(=O)COc1ncnc2ccc(Br)cc12)C1CCS(=O)(=O)C1 (configuration not stated),inconclusive: 103%
18,O=C(Cn1ncc(Cl)c(Cl)c1=O)N1CCN(Cc2ccccc2)CC1,inconclusive: 92%

# Remaining list, next part

row,SMILES,GTP binding activity (percent of control)
1,COc1ccc(OCc2ccc(C(=O)NN)cc2)cc1,inactive: 102%
2,COCCCn1c(Cc2csc(Nc3cccc(Cl)c3)n2)nnc1SCC(=O)OC1CCCCC1,inconclusive: 95%
3,CC(C)Cn1cc(C(=O)N2CCN(c3ccccn3)CC2)c2c3ccccc3n(C)c2c1=O,inconclusive: 107%
4,COc1ccc(OC)c(S(=O)(=O)NC(N)=NCCc2ccccc2OC)c1,inactive: 97%
5,CCNC(=O)O/N=C(\C)c1sc(-c2ccccc2)nc1C,inconclusive: 103%
6,COc1cccc(CN2CCNC(=O)C2CC(=O)N(Cc2cnn(C)c2)C(C)C)c1 (configuration not stated),inactive: 104%
7,CCOC(=O)c1ccccc1NC(=S)N1CCCCC1,inactive: 98%
8,CCn1cc(C(=O)OCC(=O)c2cc(C)n(-c3ccccc3)c2C)c(=O)c2ccc(C)nc21,inactive: 100%
9,COc1ccccc1CCNC(=O)c1cc(-c2ccncc2)nc2ccc(Br)cc12,inactive: 93%
10,CSc1ccccc1NC(=O)c1ccc(Br)o1,inactive: 99%
11,O=C(c1cccc(S(=O)(=O)N2CCCC2)c1)c1cccc(S(=O)(=O)N2CCCC2)c1,inconclusive: 91%
12,Clc1ccc(CN=C2Nc3ccccc3CS2)cc1,inconclusive: 101%
13,COc1ccc(-c2cc(C(F)(F)F)nc(S(=O)(=O)CCCC(=O)Nc3cc(C)on3)n2)cc1OC,inconclusive: 94%
14,COc1ccc(Oc2nnc(C)c3ccccc23)cc1,inconclusive: 104%
15,O=C1/C(=C\c2cccnc2)Sc2ccccc21,inactive: 90%
16,S=c1[nH]nc(-c2ccc3ccccc3n2)n1-c1cc(Cl)cc(Cl)c1,inconclusive: 96%
17,CCN(CC)S(=O)(=O)c1ccc2oc(C(=O)NC(C)C)c(C)c2c1,inconclusive: 104%
18,c1ccc(CCNc2ccnc3cc4ccccc4cc23)cc1,inconclusive: 94%
19,CC(=O)c1cccc(NC(=O)/C(=C\c2cccnc2)NC(=O)c2ccco2)c1,inactive: 93%
20,Cc1ccc2cccc(NC(=S)NC(=O)c3c(Br)cnn3C)c2n1,inconclusive: 97%
21,COc1ccc(Cl)cc1S(=O)(=O)Oc1ccc(NC(C)=O)cc1,inactive: 95%
22,Cc1cccc(C(=O)NC2C(=O)NNC2c2ccc(Cl)cc2)c1 (configuration not stated),inconclusive: 86%
23,CCOC(=O)Cc1cnc(NC(=O)CSc2nc(N)cc(N)n2)s1,inconclusive: 88%
